In US20130303439A1, “CHIMERIC PEPTIDES INCLUDING A PENETRATING PEPTIDE AND A BINDING DOMAIN OF PP2A CATALYTIC SUBUNIT TO CASPASE-9” (Institut National de la Sante et de la Recherche Medicale …, priority 2010, published 2013):
These are yes or no findings as the source states them, for the method shown. For some of these results: In cells and extracts the contact can be indirect. Some entries that bind do so weakly or less than the wild type. For some of these results: Tags and fused reporters may be left off the sequences shown.

The chains behind the UniProt entries cited, without tags or fusion partners.
UniProt P55211: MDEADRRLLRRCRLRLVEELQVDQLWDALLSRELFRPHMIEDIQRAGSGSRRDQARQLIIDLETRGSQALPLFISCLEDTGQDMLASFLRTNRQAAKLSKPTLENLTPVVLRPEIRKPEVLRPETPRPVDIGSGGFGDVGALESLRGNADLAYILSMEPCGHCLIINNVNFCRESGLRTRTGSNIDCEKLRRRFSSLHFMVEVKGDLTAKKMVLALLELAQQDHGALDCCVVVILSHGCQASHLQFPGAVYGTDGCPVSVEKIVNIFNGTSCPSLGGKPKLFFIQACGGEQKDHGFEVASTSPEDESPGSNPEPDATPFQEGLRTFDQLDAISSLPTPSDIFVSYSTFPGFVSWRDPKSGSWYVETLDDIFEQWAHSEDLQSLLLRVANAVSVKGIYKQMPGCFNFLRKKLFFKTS
UniProt P63330: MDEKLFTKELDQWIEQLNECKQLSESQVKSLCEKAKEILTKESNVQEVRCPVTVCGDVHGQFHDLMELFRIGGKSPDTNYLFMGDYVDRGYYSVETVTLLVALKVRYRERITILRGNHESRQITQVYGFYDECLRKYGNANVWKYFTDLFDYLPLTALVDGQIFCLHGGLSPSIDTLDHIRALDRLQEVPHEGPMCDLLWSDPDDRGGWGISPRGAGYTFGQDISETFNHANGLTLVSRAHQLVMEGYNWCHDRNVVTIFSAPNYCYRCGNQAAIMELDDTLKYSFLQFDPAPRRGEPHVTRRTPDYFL

Legend:
[1] = biological target: purified human caspase-9 (human) (UniProt P55211); assay: cellulose-bound peptide spot array incubated with purified caspase-9, anti-caspase-9 antibody, ECL
[2] = biological target: PP2Ac (catalytic subunit of PP2A) from lysate of IL-2-stimulated murine TS1αβ cells (mouse) (UniProt P63330); assay: pull-down from IL-2-stimulated TS1αβ cell lysate with biotinylated peptide on streptavidin beads, Western blot

Row | Binder | binding [1] | binding [2]
1 | HIRALDRLQEVP (bound to an amino-derived cellulose membrane (spot synthesis)) | binds | 
2 | VKKKKIKREIKIYIETLDGILEQWARSEDL (biotinylated (position not given)) [DPT-C9 (fusion of DPT-sh1 shuttle and C9 sequence)] |  | binds
3 | RALDRLQEVPHE (bound to an amino-derived cellulose membrane (spot synthesis)) | binds | 
4 | YIETLDGILEQWARSEDL (biotinylated (position not given)) [C9 peptide (mouse caspase-9 aa 401-418, PP2Ac binding domain)] |  | binds

More lines, now with the values ahead:

Row | binding [1] | binding [2] | Binder
5 | binds |  | LDHIRALDRLQE (bound to an amino-derived cellulose membrane (spot synthesis))
6 | binds |  | DTLDHIRALDRL (bound to an amino-derived cellulose membrane (spot synthesis))
7 | binds |  | LDRLQEVPHEGP (bound to an amino-derived cellulose membrane (spot synthesis))
